Where “and” joins values, the source holds several entries; their conditions need not be identical. Equal values may be shown once. Some of the results follow.

The results in this text go back to article PMC5996148.

Among the test systems are NUBP1 (human); NUCB1 (human); NUDCD2 (human); NUDT1 (human); NUDT12 (human); NUDT6 (human); NUDT9 (human); NUMB (human); NUP62CL (human); NVL (human); NXNL1 (human); NXNL2 (human); NY-SAR-48 (human); Neuroplastin (human).
Holding throughout (test): protein microarray (ProtoArray v5.0), streptavidin-Alexa Fluor 647
Common to all, as to conditions: 3'-biotin; 20 mM Tris (pH 7.5), 5 mM MgCl2, 100 mM KCl, 0.1% Tween-20, A/T-rich and random oligonucleotide blockers; temperature not stated; high values mean tight binding

The test system of test [1] is Neuritin-like protein (human).
Test [2] deals with Neurocalcin-delta (human).
Test [3] relates to Neuropilin and tolloid-like protein 2 (human).
The subject of test [4] is Neutral alpha-glucosidase AB (human).
Test [5] concerns Non-imprinted in Prader-Willi/Angelman syndrome region protein 1 homolog (human).
The test system of test [6] is Nuclear transcription factor Y subunit beta (human).

On to “GGGAGGCTGAGGCAGG [G4-1 biotinylated (PQS2)]”, for which the binding signal with NUBP1 (human) was -0.315 z-score; in the test on NUCB1 (human), -0.336 z-score; in the test on NUDCD2 (human), -0.255 z-score; with NUDT1 (human) it was -0.286 z-score; in the test on NUDT12 (human), -0.285 z-score; with NUDT6 (human), -0.237 z-score. For the same sequence, the binding signal in the test on NUDT9 (human) was -0.323 z-score and -0.263 z-score; in the test on NUMB (human), -0.345 z-score; in the test on NUP62CL (human), -0.29 z-score; in the test on NVL (human) it was -0.338 z-score; in the test on NXNL1 (human) it was -0.34 z-score; in the test with NXNL2 (human), -0.287 z-score. Moreover, the binding signal in the test with NY-SAR-48 (human) is -0.337 z-score; in test [1], -0.321 z-score; in test [2] it was -0.355 z-score; in [3], -0.267 z-score; with Neuroplastin (human) it was -0.347 z-score; in [4], -0.303 z-score. Besides, the results for the binding signal in test [5] and in test [6] were -0.304 z-score and -0.278 z-score, respectively.
